Drawing on PubChem BioAssay AID1347426 (Functional Genomics Laboratory (NCATS/FGL), 2020), this text covers median seed-adjusted z-score for 108 sequences.

Among all 31,000 sequences or so, about 1,400 (4.5%) were called active.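 Rule for the calls: active = median seed-adjusted z-score above 1 or below -1; inactive = the rest.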 The list shows a part of the results.

The nature of the assay: Novel Modifiers of Survival Motor Neuron (SMN) Protein: Gene Identification via Genome-wide siRNA Screen.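 Note: luminescence tracks full-length SMN protein made from the SMN2 reporter.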 Conditions: HEK293T SMN2-luciferase reporter, siRNA knockdown, 72 h; actives lie on both sides. In a few lines:
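siRNA screen, 10418 genes ×3 siRNAs; 1 pmol/well, lipid reverse transfection into HEK293T SMN2-luc reporter line. 72 h, 37 °C, 5% CO2; ONE-Glo readout. Data: neg-ctrl normalized, log10, MAD; hit = MAD >1.0 or < -1.0.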
On the technique in general: Reporter assays use an easily measured gene product as a stand-in for the process of interest.
Regarding GCAUCGGCACCAUCGUCUATT against ULK1, the median seed-adjusted z-score is inactive: -0.214.
In the case of CCUUGCAAGAUGACGAUUATT against ZFYVE26, the median seed-adjusted z-score is inactive: 0.0495.
Turning to CCGGGUUUUUAAUCGCUUATT against TTLL7, the median seed-adjusted z-score is inactive: 0.00109.
For GCACAUGUUUGGAGGAUUUTT against ZNRF2, the median seed-adjusted z-score is inactive: 0.
With GCAGCUACCUCAGGAAUGATT against MAP4K2, the median seed-adjusted z-score was inactive: -0.439.
For GCAACGAUCUGAAAGUCAUTT against ECHDC3, the median seed-adjusted z-score is inactive: 0.378.
Consider CAUGGACAUUGACAAGGUATT against CHMP4A, for which the median seed-adjusted z-score was inactive: -0.209.
The same measure for GGAAAUCUUUUAUCCGAAATT against ZNF530: inactive: 0.0381.
Take GAGUACUCAUAGGAUUUGATT against WIF1: the median seed-adjusted z-score was inactive: -0.521.
As to AGGGAGACCUGGAACCUGATT against AIPL1, the median seed-adjusted z-score is inactive: -0.259.
Turning to GGACUUCCACCGUAAGGUATT against RASD2, the median seed-adjusted z-score was inactive: 0.0673.
The same measure for CGAAGGAUCUUGACGAGGATT against ABCG8: inactive: -0.0233; for CUAGAGUAAUUGAAGAUAATT against LYN: inactive: -0.178; for GGUCCUGAGUGUGAUGUCATT against IL20RB: inactive: -0.413.
The same measure for GGAAAUCUCGUGAUUUUCATT against TEAD1: active: 1.31; for GGAUGAGAAAACUCGCUUUTT against COPA: inactive: -0.807; for UGAAGAUCCAAGUGCGAAATT against FCER1G: inactive: 0.136.
For GGAGAAGUCAGAUUAUGUATT against SOX1, the median seed-adjusted z-score was inactive: 0.415.
For the sequence GACUGAACCUUGGGCAGAATT against SIGLEC9, the median seed-adjusted z-score was inactive: 0.
With GCGUGGUUUUGGUCGACUATT against PTPRE, the median seed-adjusted z-score is inactive: 0.619.
Turning to CCUAUUUAAUCGACAGAGATT against KCTD5, the median seed-adjusted z-score was inactive: -0.748.
In the case of GCAGAAAUAGGUUACCGGATT against TTK, the median seed-adjusted z-score was inactive: -0.658.
The same measure for GGACAUACAAAGAGCCUAATT against ELOVL4: inactive: 0.166; for GAUUCGAUCUAAUAACAGUTT against ZRANB3: inactive: 0.0516; for ACAAGGUGGAGUUUCUUAATT against KCNC3: inactive: 0.279.
On to GCAGAGGAGUCAAUGCUAUTT against ARL8B, for which the median seed-adjusted z-score is inactive: -0.477.
Next, GCUCUAUUGUGGACGAUGATT against IQGAP2: inactive: 0.194; GGUUGGUUGUAUUUCCAGATT against ELOVL5: inactive: -0.734; CAAUUGCUCAGGGAUAUGATT against NNT: inactive: 0.336.
With CACCCUCAACGGCCUCAAATT against ELAVL3, the median seed-adjusted z-score was inactive: -0.151.
The same measure for GCCUCAUCGAGGGAACUAUTT against CCS: inactive: 0.0581.
Next, GCUUGUUCCAGAAUCGAGATT against KIF18A: inactive: -0.159.
With CGGAGGAAUUUGAGUCUUATT against OC90, the median seed-adjusted z-score was inactive: 0.216.
As for GGAUACAACGGAUCAUAUUTT against FIGN, the median seed-adjusted z-score is inactive: -0.2.
Turning to GCAUCUGUGAGGAUAUUGATT against FBN3, the median seed-adjusted z-score was inactive: 0.264.
Take CCACUAAGAGAAUACAGGATT against KLK6: the median seed-adjusted z-score was inactive: 0.176.
Next, GCAUGUUGAUAAACAUCCATT against SRD5A1: inactive: 0.0945; GGUGUUCAGUGGAAAGCGATT against TNK2: inactive: -0.574.
In the case of GGUACCUUGUGGUCUAUAATT against MAN2A1, the median seed-adjusted z-score is inactive: -0.397.
For the sequence GCGAAUGGUUUCAAGAUAATT against PMS1, the median seed-adjusted z-score was inactive: 0.0538.
On to ACAAUAAGCUGGACCUCUATT against TLR9, for which the median seed-adjusted z-score is inactive: -0.0834.
Regarding CGUCAUUGCCGUUAAGCAATT against MAP2K7, the median seed-adjusted z-score is inactive: -0.772.
Turning to CCAUGGAUUUUGUACUGCUTT against VPS35, the median seed-adjusted z-score was inactive: -0.511.
As for CCCUCAAGAUGAUCCCGAUTT against SPRYD5, the median seed-adjusted z-score was inactive: 0.151.
Regarding AAAUCCCGGUGAUCAUCGATT against MAP1LC3A, the median seed-adjusted z-score is inactive: 0.
As to GCAACUCCCUGAAUUUUUATT against MYL1, the median seed-adjusted z-score is inactive: 0.24.
Take GCUUUCCGAUGAUGAGAGATT against LEO1: the median seed-adjusted z-score was active: 1.2.
The same measure for GAACUUUUGGGACCAAAUATT against NME5: inactive: 0.393.
The same measure for GAAUUCCUCCUGAUAGUUUTT against ZBED4: inactive: -0.553; for CAAACCUGGUGUUCGUGUATT against CDK5R2: inactive: -0.0965.
For GGACUGCUGGUUAUCCUGATT against GLB1, the median seed-adjusted z-score was inactive: -0.543.
Consider GCUGAAUAUCUACACGGAATT against SLCO4A1, for which the median seed-adjusted z-score is inactive: -0.0802.
For the sequence GCUGGUACCCGUCAACAAATT against ABCC10, the median seed-adjusted z-score was active: -1.56.
With CACCGUUUAUGGAUUGGGATT against HOMER1, the median seed-adjusted z-score was inactive: 0.
In the case of CGAGAGUAUUGAUAAUUCATT against PI4KB, the median seed-adjusted z-score is inactive: 0.105.
Take UGAGAGAGUCCACUACUUATT against GPR162: the median seed-adjusted z-score was inactive: 0.195.
For the sequence GGAUGUGCACUCUCAUUGATT against COPA, the median seed-adjusted z-score is inactive: -0.807.
On to CAAGCAGUACAACAAGUUUTT against UCKL1, for which the median seed-adjusted z-score is inactive: 0.695.
In the case of GGCUUUGACUGGGUGUAUUTT against IHH, the median seed-adjusted z-score is inactive: 0.0642.
As for CCUUAUAGUUCACACCUUATT against ZNF267, the median seed-adjusted z-score is inactive: 0.381.
In the case of AGAUAAGAAUCGCAUGACATT against ARHGAP9, the median seed-adjusted z-score is inactive: 0.
Take CGUUAUUCAUAAGAGGAUUTT against ZNF331: the median seed-adjusted z-score was inactive: 0.415.
For GGUAAGAAGCUGUACGGAUTT against ZNF214, the median seed-adjusted z-score is inactive: 0.467.
CCAUAGCAGUAAUGAUACATT against GRIN3A: the median seed-adjusted z-score is inactive: 0.241.
Take GACUGAACUGAAUAACUGUTT against TRIM63: the median seed-adjusted z-score is inactive: -0.376.
In the case of CACAGAAUCUUAUCACAGUTT against IRF9, the median seed-adjusted z-score was inactive: 0.114.
The same measure for GGAGCAAGCUUUAUUCGUUTT against MYO6: inactive: 0; for GCAUUGAACAAAGCUAAAATT against CDC6: inactive: 0.0196; for ACUUUGCAAUCGCUCAAAATT against NPTX1: inactive: -0.117.
In the case of CGACAGUACUUUGCCCUAATT against TRIM39, the median seed-adjusted z-score is inactive: 0.41.
For CAACGGAAGUGCUACUACUTT against FCER2, the median seed-adjusted z-score is active: -1.75.
Take AGGACAAUGUGGAUGGGCATT against REXO1: the median seed-adjusted z-score was inactive: -0.748.
Regarding GGAAUCCGAUUUUUCGAAATT against RAB13, the median seed-adjusted z-score was inactive: -0.599.
Consider GCAUUUACCAGUGACCAUATT against FECH, for which the median seed-adjusted z-score was inactive: 0.135.
Take GGAUCGUGUUUAUGAAGAATT against MS4A2: the median seed-adjusted z-score is inactive: 0.155.
In the case of AGCCUGUUCUCAUCACCAUTT against TAPBP, the median seed-adjusted z-score is inactive: -0.786.
For CCCGGUCAUUGGUGAUUCATT against DHTKD1, the median seed-adjusted z-score is inactive: 0.591.
On to GCGCCGUCAUGAAACAGUUTT against RBM14, for which the median seed-adjusted z-score was inactive: -0.0317.
Next, CGGUGACUUCGCAAGCAAATT against POLR2J: inactive: 0.0437; GCCUGAUAACGUAAUAACATT against ARSA: inactive: 0.0938.
Regarding GGGUGAAUCCAGAGAACAATT against DND1, the median seed-adjusted z-score is inactive: 0.157.
For ACCGCGACUUCAUCAAGAATT against EEF1A2, the median seed-adjusted z-score was inactive: -0.64.
The same measure for CGUGGGAUGCUCAAAGAUATT against EZR: inactive: 0.0344.
Consider CCAUCGUUUUGGGCACUUUTT against ATP2B3, for which the median seed-adjusted z-score is inactive: 0.0848.
With GCACUAAUGGAAAUUAUGATT against PEX6, the median seed-adjusted z-score was inactive: -0.281.
Next, CGCGAGAACUUCUACCAAATT against TNC: inactive: -0.253.
In the case of GCUCAUCGAGAUGAUAUAUTT against SCN3B, the median seed-adjusted z-score was inactive: 0.
GAGAAAUAUGUAUACAGUATT against ZMAT3: the median seed-adjusted z-score was inactive: 0.979.
For AGCAGAUUCUGACGCAGUATT against UCK1, the median seed-adjusted z-score is inactive: -0.599.
Take GAGGCAACAUGAGUGAGAATT against ZNF768: the median seed-adjusted z-score is inactive: 0.169.
Consider GGCUCUUGGAAUAACUGAATT against SERPINI1, for which the median seed-adjusted z-score was inactive: 0.127.
As to GUACUUACCUUAUUCGACATT against ZNF287, the median seed-adjusted z-score was inactive: 0.0213.
As for GGAUAUAUUUGAGACCCGUTT against MSTN, the median seed-adjusted z-score is inactive: -0.639.
On to GACUCACAAGAAACCUAUATT against OSMR, for which the median seed-adjusted z-score is inactive: 0.548.
In the case of GCAGAAUUCUGACGAUGAUTT against LEO1, the median seed-adjusted z-score was active: 1.2.
The same measure for CCAACCUGCUGGUUGUUCATT against ZNF628: inactive: -0.121.
The same measure for CAGUCGCUGGUGUGACAAATT against DDX3X: inactive: 0.0136; for GGUCAGUGCGGAUAACUAUTT against IL4R: inactive: 0; for “CACUAUUUCGAACGAAAAATT against ST6GALNAC2”: inactive: 0.
For the sequence CCUCAAUCCUUGUCUGGUATT against FEV, the median seed-adjusted z-score is inactive: 0.174.
In the case of CCAUAGCCCAAAUCAAGGATT against SIK2, the median seed-adjusted z-score was inactive: 0.055.
Next, CUUCAUCCGUGAGAUCAGATT against RASEF: inactive: 0.299.
With AGAUGUCCAAUUUGAUGAATT against ATP6V1E1, the median seed-adjusted z-score is inactive: -0.312.
Consider GCACCUCCACGGUUCAGAATT against RS1, for which the median seed-adjusted z-score was inactive: -0.684.
In the case of CAUUUAGUGUACAUUCAAATT against ZNF665, the median seed-adjusted z-score is active: 1.13.
For the sequence CUGAGACCCUGUUGACUGATT against PGS1, the median seed-adjusted z-score is active: 1.36.
AGACUUUCAUGAUCGACGATT against BARX2: the median seed-adjusted z-score is inactive: -0.206.
With GGAUUAUGCAAUCUCCAAATT against ZNF783, the median seed-adjusted z-score is inactive: 0.284.
